These are yes or no findings as the source states them, for the method shown. Binding seen in cells or lysates may run through a third protein. Some entries that bind do so weakly or less than the wild type.
What was measured:
HA-tagged MYC (human) = HA-tagged MYC (human) (UniProt P01106); assay: co-IP; lysates of 293T cells co-expressing HA-MYC and Flag-HEATR1, 24 h after transfection; precipitated with anti-HA (3F10) on Dynabeads Protein G, 1 h, 4 °C; lysis buffer 20 mM Tris-HCl, 150 mM NaCl, 1 mM EDTA, 1% NP-40, 0.5% sodium deoxycholate; 4 washes; western blot
[1] = molecular target: Flag-tagged HEATR1 (human) (UniProt Q9H583); assay: co-IP; lysates of 293T cells co-expressing HA-MYC and Flag-HEATR1, 24 h after transfection; precipitated with anti-Flag M2 on Dynabeads Protein G, 1 h, 4 °C; lysis buffer 20 mM Tris-HCl, 150 mM NaCl, 1 mM EDTA, 1% NP-40, 0.5% sodium deoxycholate; 4 washes; western blot

The chains behind the UniProt entries cited, without tags or fusion partners.
UniProt P01106: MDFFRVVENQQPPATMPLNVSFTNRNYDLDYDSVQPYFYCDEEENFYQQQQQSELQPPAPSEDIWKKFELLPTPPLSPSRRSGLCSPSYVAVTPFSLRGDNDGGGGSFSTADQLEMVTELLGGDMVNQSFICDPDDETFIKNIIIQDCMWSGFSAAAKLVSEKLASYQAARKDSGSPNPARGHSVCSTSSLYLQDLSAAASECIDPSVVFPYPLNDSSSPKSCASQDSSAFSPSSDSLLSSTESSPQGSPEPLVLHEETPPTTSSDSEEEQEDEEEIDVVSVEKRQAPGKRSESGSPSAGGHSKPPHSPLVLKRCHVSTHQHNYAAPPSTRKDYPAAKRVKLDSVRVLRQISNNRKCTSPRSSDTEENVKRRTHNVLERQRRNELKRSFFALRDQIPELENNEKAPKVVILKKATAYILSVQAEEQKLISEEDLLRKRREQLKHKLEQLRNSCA
UniProt Q9H583: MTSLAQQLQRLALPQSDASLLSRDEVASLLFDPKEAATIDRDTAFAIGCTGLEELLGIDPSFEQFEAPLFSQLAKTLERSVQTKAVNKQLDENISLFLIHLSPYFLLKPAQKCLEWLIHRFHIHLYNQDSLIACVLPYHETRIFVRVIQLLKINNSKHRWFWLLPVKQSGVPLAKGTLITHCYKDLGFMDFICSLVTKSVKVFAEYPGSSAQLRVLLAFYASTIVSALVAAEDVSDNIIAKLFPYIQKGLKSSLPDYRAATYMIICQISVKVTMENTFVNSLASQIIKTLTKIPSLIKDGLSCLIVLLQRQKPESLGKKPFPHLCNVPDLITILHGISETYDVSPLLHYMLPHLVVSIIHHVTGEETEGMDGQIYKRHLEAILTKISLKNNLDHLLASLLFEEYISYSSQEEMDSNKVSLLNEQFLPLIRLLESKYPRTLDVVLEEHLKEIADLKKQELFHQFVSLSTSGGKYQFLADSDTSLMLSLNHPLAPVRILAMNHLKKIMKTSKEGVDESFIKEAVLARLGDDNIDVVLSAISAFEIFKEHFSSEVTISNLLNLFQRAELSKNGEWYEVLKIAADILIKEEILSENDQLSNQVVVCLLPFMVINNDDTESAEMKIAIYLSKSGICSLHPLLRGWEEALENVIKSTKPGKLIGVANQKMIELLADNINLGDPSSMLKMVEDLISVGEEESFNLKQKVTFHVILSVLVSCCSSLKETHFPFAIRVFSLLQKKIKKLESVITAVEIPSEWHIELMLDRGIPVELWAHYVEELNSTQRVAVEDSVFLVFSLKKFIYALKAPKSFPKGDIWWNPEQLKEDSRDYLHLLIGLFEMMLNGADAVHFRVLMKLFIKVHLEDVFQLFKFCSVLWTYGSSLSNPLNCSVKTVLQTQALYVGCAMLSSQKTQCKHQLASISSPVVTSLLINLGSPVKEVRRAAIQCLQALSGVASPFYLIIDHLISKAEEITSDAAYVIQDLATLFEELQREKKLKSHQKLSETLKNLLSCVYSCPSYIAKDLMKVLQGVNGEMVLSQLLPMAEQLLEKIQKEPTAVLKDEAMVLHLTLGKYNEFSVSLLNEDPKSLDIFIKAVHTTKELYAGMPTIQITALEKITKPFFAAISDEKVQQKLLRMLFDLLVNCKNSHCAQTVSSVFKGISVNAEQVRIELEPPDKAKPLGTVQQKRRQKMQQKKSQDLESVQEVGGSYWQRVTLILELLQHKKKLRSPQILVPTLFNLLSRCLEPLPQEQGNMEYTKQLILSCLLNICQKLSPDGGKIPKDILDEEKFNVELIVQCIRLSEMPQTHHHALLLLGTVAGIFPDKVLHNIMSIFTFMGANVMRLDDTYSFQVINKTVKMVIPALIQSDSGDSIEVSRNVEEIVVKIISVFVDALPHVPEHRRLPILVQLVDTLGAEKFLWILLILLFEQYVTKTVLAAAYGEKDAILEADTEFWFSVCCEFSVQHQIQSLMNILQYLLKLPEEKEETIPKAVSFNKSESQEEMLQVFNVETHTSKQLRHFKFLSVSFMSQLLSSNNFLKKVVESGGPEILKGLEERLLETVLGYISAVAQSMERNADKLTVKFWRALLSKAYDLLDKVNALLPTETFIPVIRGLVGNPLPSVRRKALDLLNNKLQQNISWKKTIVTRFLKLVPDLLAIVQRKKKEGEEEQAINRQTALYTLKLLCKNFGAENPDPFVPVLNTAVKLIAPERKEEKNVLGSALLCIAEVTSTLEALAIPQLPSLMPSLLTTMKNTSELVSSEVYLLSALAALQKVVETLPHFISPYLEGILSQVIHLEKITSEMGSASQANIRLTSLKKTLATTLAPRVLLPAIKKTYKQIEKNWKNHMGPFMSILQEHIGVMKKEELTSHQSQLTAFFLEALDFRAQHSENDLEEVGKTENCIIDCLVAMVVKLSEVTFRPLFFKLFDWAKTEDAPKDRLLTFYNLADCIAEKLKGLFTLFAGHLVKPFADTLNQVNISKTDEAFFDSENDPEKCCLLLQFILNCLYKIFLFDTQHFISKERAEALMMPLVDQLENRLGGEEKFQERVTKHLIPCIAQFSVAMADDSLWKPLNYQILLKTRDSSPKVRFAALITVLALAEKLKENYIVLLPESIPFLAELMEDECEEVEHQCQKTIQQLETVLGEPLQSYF

| binding (HA-tagged MYC (human)) | binding [1] | Substance |
| --- | --- | --- |
| binds |  | Flag-tagged HEATR1 (from UniProt Q9H583 1-2144) |
|  | binds | HA-tagged MYC (from UniProt P01106 1-454) |
